Reference: PubChem BioAssay AID1259254 (NCATS, 2017)
This is an unselected part of about 59,000 reagents. About 1,550 of all reagents (2.6%) were called active. 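G2 share is only a proxy for re-replication; each gene was hit by three separate siRNAs, and active genes were retested.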 A number with no mark means an inactive call. Reagents against one gene are numbered here. Further read-outs or replicates are left out here. Not stated in the record: the amount of reagent.

- Purpose: 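Gene knock-downs that lead to re-replication, shown by excess G2 DNA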 (primary screen)
- Cells: human HCT116 colorectal cancer cells
- Knock-down reagent: single siRNA against human genes
- Time to read-out: 3 days
- Read-out: 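Nuclei stained with Hoechst and imaged; cell-cycle phase assigned by DNA content; G2 share scaled per plate, non-targeting siRNA 0%, GMNN siRNA 100%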
- Scale: G2 robust z-score: higher = more G2 cells, more excess DNA replication
- Rule for the call: 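Active siRNAs have a G2 robust z of 5 or more median absolute deviations over the median, which in these data means about 38% or higher of GMNN control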

gene knocked down	reagent no.	G2 robust z-score
MYCN (GeneID 4613)	1	1.58
MYCN (GeneID 4613)	2	-0.24
MYCN (GeneID 4613)	3	-0.762
SECTM1 (GeneID 6398)	1	-0.248
SECTM1 (GeneID 6398)	2	-0.63
SECTM1 (GeneID 6398)	3	-0.268
TBATA (GeneID 219793)	1	-0.181
TBATA (GeneID 219793)	2	0.843
TBATA (GeneID 219793)	3	4.69
MOGAT1 (GeneID 116255)	1	-0.0683
MOGAT1 (GeneID 116255)	2	3.9
MOGAT1 (GeneID 116255)	3	-0.248
FASN (GeneID 2194)	1	-0.263
FASN (GeneID 2194)	2	0.411
FASN (GeneID 2194)	3	-0.939
ASB8 (GeneID 140461)	1	0.399
ASB8 (GeneID 140461)	2	-0.0663
ASB8 (GeneID 140461)	3	-0.237
LNP1 (GeneID 348801)	1	-0.665
LNP1 (GeneID 348801)	2	-0.0166
LNP1 (GeneID 348801)	3	-0.861
SEMA6B (GeneID 10501)	1	4.18
SEMA6B (GeneID 10501)	2	-1.33
SEMA6B (GeneID 10501)	3	0.476
SYNGAP1 (GeneID 8831)	1	1.19
SYNGAP1 (GeneID 8831)	2	1.56
SYNGAP1 (GeneID 8831)	3	2.13
COMMD2 (GeneID 51122)	1	0.892
COMMD2 (GeneID 51122)	2	2.88
COMMD2 (GeneID 51122)	3	-0.0839
MMP2 (GeneID 4313)	1	0.325
MMP2 (GeneID 4313)	2	-0.327
MMP2 (GeneID 4313)	3	-0.495
EFR3B (GeneID 22979)	1	-1.31
EFR3B (GeneID 22979)	2	0.286
EFR3B (GeneID 22979)	3	0.686
C1QTNF8 (GeneID 390664)	1	2.07
C1QTNF8 (GeneID 390664)	2	4.04
C1QTNF8 (GeneID 390664)	3	1.3
NEURL3 (GeneID 93082)	1	-0.187
NEURL3 (GeneID 93082)	2	-0.669
NEURL3 (GeneID 93082)	3	0.85
BLMH (GeneID 642)	1	8.16 (active)
BLMH (GeneID 642)	2	0.0744
BLMH (GeneID 642)	3	-0.711
GABARAP (GeneID 11337)	1	0.0449
GABARAP (GeneID 11337)	2	-1.45
GABARAP (GeneID 11337)	3	-0.581
TBR1 (GeneID 10716)	1	0.856
TBR1 (GeneID 10716)	2	0.944
TBR1 (GeneID 10716)	3	0.144
CNBD2 (GeneID 140894)	1	-0.615
CNBD2 (GeneID 140894)	2	-0.459
CNBD2 (GeneID 140894)	3	-0.0482
DCDC2B (GeneID 149069)	1	3.52
DCDC2B (GeneID 149069)	2	-0.121
DCDC2B (GeneID 149069)	3	0.0154
ITPRIPL2 (GeneID 162073)	1	5.58 (active)
ITPRIPL2 (GeneID 162073)	2	1.49
ITPRIPL2 (GeneID 162073)	3	0.0654
HOMER3 (GeneID 9454)	1	-0.646
HOMER3 (GeneID 9454)	2	-0.874
HOMER3 (GeneID 9454)	3	0.42
PAGE1 (GeneID 8712)	1	-0.0956
PAGE1 (GeneID 8712)	2	5.23 (active)
PAGE1 (GeneID 8712)	3	0.512
PCDHA3 (GeneID 56145)	1	-0.121
PCDHA3 (GeneID 56145)	2	-0.62
PCDHA3 (GeneID 56145)	3	3.02
LAMTOR4 (GeneID 389541)	1	-0.332
LAMTOR4 (GeneID 389541)	2	-0.637
LAMTOR4 (GeneID 389541)	3	3.84
NCAPH2 (GeneID 29781)	1	0.964
NCAPH2 (GeneID 29781)	2	-0.0535
NCAPH2 (GeneID 29781)	3	-0.671
EDA (GeneID 1896)	1	-0.148
EDA (GeneID 1896)	2	5.65 (active)
EDA (GeneID 1896)	3	-0.303
LOC729683 (GeneID 729683)	1	6.01 (active)
LOC729683 (GeneID 729683)	2	-0.493
LOC729683 (GeneID 729683)	3	0.739
TOMM7 (GeneID 54543)	1	0.667
TOMM7 (GeneID 54543)	2	1.49
TOMM7 (GeneID 54543)	3	-0.967
KCNB1 (GeneID 3745)	1	-0.72
KCNB1 (GeneID 3745)	2	0.749
KCNB1 (GeneID 3745)	3	0.246
